This note sets out measurements from article doi:10.1101/305508.

Chains of the proteins cited; added tags and fusions are not shown.
UniProt Q61545: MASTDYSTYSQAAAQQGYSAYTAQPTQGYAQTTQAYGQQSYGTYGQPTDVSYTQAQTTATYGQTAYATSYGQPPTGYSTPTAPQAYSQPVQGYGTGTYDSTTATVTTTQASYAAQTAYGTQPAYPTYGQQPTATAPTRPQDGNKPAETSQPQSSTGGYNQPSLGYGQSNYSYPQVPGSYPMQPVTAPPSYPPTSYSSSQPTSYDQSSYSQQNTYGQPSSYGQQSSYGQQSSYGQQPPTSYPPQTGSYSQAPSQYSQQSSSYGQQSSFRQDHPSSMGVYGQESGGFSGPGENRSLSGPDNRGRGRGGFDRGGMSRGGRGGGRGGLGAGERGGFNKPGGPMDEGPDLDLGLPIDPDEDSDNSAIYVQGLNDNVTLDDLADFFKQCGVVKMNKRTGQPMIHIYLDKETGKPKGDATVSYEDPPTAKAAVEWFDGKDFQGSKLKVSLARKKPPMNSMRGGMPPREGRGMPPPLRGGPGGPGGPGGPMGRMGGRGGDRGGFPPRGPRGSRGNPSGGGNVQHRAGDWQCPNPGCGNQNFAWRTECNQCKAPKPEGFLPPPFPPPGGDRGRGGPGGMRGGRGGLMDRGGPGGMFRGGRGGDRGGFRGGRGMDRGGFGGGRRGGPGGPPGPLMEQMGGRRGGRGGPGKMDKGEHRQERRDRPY
UniProt Q9CWW7: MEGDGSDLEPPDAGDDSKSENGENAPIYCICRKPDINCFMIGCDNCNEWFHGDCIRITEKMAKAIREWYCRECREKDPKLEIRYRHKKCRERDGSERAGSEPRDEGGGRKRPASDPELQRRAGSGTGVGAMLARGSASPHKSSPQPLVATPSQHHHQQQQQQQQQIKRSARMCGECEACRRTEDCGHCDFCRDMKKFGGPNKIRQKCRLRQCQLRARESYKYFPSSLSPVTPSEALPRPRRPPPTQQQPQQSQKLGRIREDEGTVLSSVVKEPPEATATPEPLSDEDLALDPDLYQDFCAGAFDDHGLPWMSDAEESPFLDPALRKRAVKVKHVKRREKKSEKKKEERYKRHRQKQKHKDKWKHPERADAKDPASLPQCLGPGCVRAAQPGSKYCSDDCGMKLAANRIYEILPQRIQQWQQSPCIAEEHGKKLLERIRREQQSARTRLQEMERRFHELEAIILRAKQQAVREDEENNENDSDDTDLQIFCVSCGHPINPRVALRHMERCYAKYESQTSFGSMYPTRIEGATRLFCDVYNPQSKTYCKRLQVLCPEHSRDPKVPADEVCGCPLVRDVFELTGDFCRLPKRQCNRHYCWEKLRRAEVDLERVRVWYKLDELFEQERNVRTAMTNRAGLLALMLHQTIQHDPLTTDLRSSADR

These are yes or no findings as the source states them, for the method shown. In cells and extracts the contact can be indirect.

The target of test [1] is EWSR1 (mouse (endogenous in 14 dpp B6 testis)) (UniProt Q61545). In words: co-IP.
Test [2] has as its target HA-tagged EWSR1 (UniProt Q61545). In words: co-IP.

Regarding “CxxC finger protein 1 (from UniProt Q9CWW7 1-660)”, the binding entry in test [1] was “no binding”. Turning to “Myc-tagged mouse CXXC1 (from UniProt Q9CWW7 1-660)”, the binding result in test [2] is on record as “no binding”.
